For this assay, the system named is P388 leukemia ip, CD2F1 mice, survival T/C. The assay can be described thus: NCI In Vivo Anticancer Drug Screen. Data for tumor model P388 Leukemia (intraperitoneal) in CD2F1 (CDF1) mice. To be noted: T/C endpoint: median survival time, higher T/C = longer survival.
Setting [1] is: dose: 240.0 mg/kg/injection, schedule: Q01DX005 (ip), vehicle: saline with Tween-80.
[2] abbreviates: dose: 200.0 mg/kg/injection, schedule: Q04DX003 (ip), vehicle: saline with Tween-80.
Where [3] appears, read: dose: 400.0 mg/kg/injection, schedule: Q04DX003 (ip), vehicle: saline with Tween-80.
The mark [4] stands for this setting: dose: 200.0 mg/kg/injection, schedule: Q01DX009 (ip), vehicle: saline.
The mark [5] stands for this setting: dose: 100.0 mg/kg/injection, schedule: Q01DX005 (ip), vehicle: saline.
Setting [6] is: dose: 200.0 mg/kg/injection, schedule: Q01DX005 (ip), vehicle: saline.
[7] abbreviates: dose: 100.0 mg/kg/injection, schedule: Q01DX005 (ip), vehicle: saline with Tween-80.
Setting [8] is: dose: 200.0 mg/kg/injection, schedule: Q01DX005 (ip), vehicle: saline with Tween-80.
Setting [9] is: dose: 25.0 mg/kg/injection, schedule: Q01DX005 (ip), vehicle: saline with Tween-80.
The mark [10] stands for this setting: dose: 50.0 mg/kg/injection, schedule: Q01DX005 (ip), vehicle: saline with Tween-80.
Setting [11] is: dose: 120.0 mg/kg/injection, schedule: Q01DX005 (ip), vehicle: Klucel (hydroxypropylcellulose) (HPC).
Where [12] appears, read: dose: 240.0 mg/kg/injection, schedule: Q01DX005 (ip), vehicle: Klucel (hydroxypropylcellulose) (HPC).

Drawing on PubChem BioAssay AID330 (DTP/NCI, 2004), this text covers survivor count and T/C for 31 compounds.

The list shows only some results of the screen, not a fair sample: it is rich in T/C values a quarter to a half above the control, in often repeated tests (any T/C) and in doses without a T/C. Other doses and runs of a compound stand elsewhere. T/C is the treated group as % of the vehicle group. Some entries give survivors of the animals treated and no T/C: the source holds a T/C of zero for them, seemingly a mark for toxic or unscored doses. Some survivor counts are full or nearly so, which does not show that the dose was tolerated: survival well below the control is almost never listed, so the zero probably covers shortened survival too. Counts of survivors are from the toxicity check (mostly the fifth day) where no day follows; animals may have died later. Schedules are NCI's codes, taken here to give the interval after Q, in days (D) or hours (H), and the number of doses after X. Some schedule codes hold Z or #, which are not explained here. Some doses were run more than once; the results are listed from low to high. For survival time, this PubChem deposit counts one and a half times the control or more as active, and values a quarter to a half above the control carry no call in these data; other NCI protocols may use other cut-offs.

For the compound `CN1CCC[N+](C)=C1c1ccc(N(C)C)cc1`, the survivor count is given as 0 of 6 (dose: 6.25 mg/kg/injection, schedule: Q01DX005 (ip), vehicle: suspension in saline); 0 of 6 (dose: 12.5 mg/kg/injection, schedule: Q01DX005 (ip), vehicle: suspension in saline); 0 of 6 (dose: 25.0 mg/kg/injection, schedule: Q01DX005 (ip), vehicle: suspension in saline); 0 of 6 (dose: 50.0 mg/kg/injection, schedule: Q01DX005 (ip), vehicle: suspension in saline); 0 of 6 (dose: 100.0 mg/kg/injection, schedule: Q01DX005 (ip), vehicle: suspension in saline); 0 of 6 (dose: 200.0 mg/kg/injection, schedule: Q01DX005 (ip), vehicle: suspension in saline).
With `FC(F)(F)c1ccccc1NC(=S)SCc1ccc2c(c1)OCO2`, the survivor count was 6 of 6 (dose: 50.0 mg/kg/injection, schedule: Q01DX009 (ip), vehicle: suspension in saline); 5 of 6 (dose: 100.0 mg/kg/injection, schedule: Q01DX009 (ip), vehicle: suspension in saline); 5 of 6 (dose: 200.0 mg/kg/injection, schedule: Q01DX009 (ip), vehicle: suspension in saline).
Take `CCCCCCC(=O)c1c(O)c2ccccc2oc1=O`: the survivor count under setting [1] was 1 of 6.
Regarding `CC(C)=CCCC(C)=C(C#N)C#N`, the survivor count runs as follows: under setting [2], 0 of 6; under setting [3], 0 of 6.
In the case of `Cc1ccc(S(=O)(=O)C(CC(=O)CCN2CCCCC2)c2ccccc2)cc1` (stereo unspecified), under setting [4], the survivor count was 3 of 6.
As to `CCN(CC)CCSc1c2ccc(Cl)cc2nc2ccc(OC)cc12`, the survivor count by setting is: under setting [5], 3 of 5; under setting [6], 1 of 5.
On to `C/C(=N/NC(N)=O)c1ccc2c3c(cc(Br)c2c1)CCCC3`, for which the survivor count runs as follows: under setting [7], 6 of 6; under setting [8], 5 of 6.
With `Oc1ccc2ccccc2c1N=Nc1nn[nH]n1`, under setting [8], the survivor count was 0 of 5.
For the compound `CN(C)c1ccc(/C=C2/SC(=S)NC2=O)cc1`, the survivor count was 6 of 6 under setting [8] and 6 of 6 (dose: 400.0 mg/kg/injection, schedule: Q01DX005 (ip), vehicle: saline with Tween-80).
With `N/N=C1\c2ccccc2-c2cccc(O)c21`, the survivor count runs as follows: (dose: 60.0 mg/kg/injection, schedule: Q01DX005 (ip), vehicle: saline with Tween-80) 6 of 6; (dose: 120.0 mg/kg/injection, schedule: Q01DX005 (ip), vehicle: saline with Tween-80) 6 of 6; under setting [1], 6 of 6.
Consider `COc1ccc(-c2nccc3cc(OC)c(OC)cc23)cc1OC`, for which, under “dose: 100.0 mg/kg/injection, schedule: Q01DX009 (ip), vehicle: water”, the survivor count is reported as 2 of 6.
Consider `CCCCCCC[n+]1ccccc1C#N`, for which the survivor count runs as follows: under setting [2], 2 of 6; under setting [3], 0 of 6.
Take `CSc1cccc(NC(=O)Nc2ccc(S(N)(=O)=O)cc2)c1`: the survivor count (dose: 200.0 mg/kg/injection, schedule: Q01DX009 (ip), vehicle: Klucel (hydroxypropylcellulose) (HPC)) is 6 of 6.
Regarding `Cc1nnc(N/N=C/c2ccc([N+](=O)[O-])o2)[nH]c1=O`, the T/C is 128, 144, 145 % of control under setting [9]; 133 and 137 % of control under setting [10]. In addition, the survivor count is recorded as 6 of 6 under setting [10], 2 of 6 under setting [7] and 0 of 6 under setting [8].
As to `C/C1=C2N=C(/C=C3N=C(/C(C)=C4\[N-]C(C(CC(N)=O)C4(C)CCC(=O)NCC(C)OP(=O)(O)OC4C(CO)OC(n5cnc6cc(C)c(C)cc65)C4O)C4(C)N=C1C(CCC(N)=O)C4(C)CC(N)=O)C(CCC(N)=O)C\3(C)C)C(CCC(N)=O)C/2(C)CC(N)=O.[CH2-]CC.[Co+2]` (stereo unspecified), the survivor count by setting is: (dose: 7.6 micrograms/kg/injection, schedule: Q#A X Z (ip), vehicle: water) 10 of 10; (dose: 761.0 micrograms/kg/injection, schedule: Q#A X Z (ip), vehicle: water) 10 of 10.
`COc1ccc(-n2c3c(c4c(N)ncnc42)CCCC3)cc1`: under setting [1], the survivor count is given as 6 of 6.
With `O=C1OC(=O)C2=C1C1c3ccccc3C2c2ccccc21`, the survivor count (dose: 200.0 mg/kg/injection, schedule: Q01DX005 (ip), vehicle: Klucel (hydroxypropylcellulose) (HPC)) was 1 of 5.
For `CC1=C(C(=O)Nc2ccccc2Cl)C(c2cccc([N+](=O)[O-])c2)C(C(=O)Nc2ccccc2Cl)=C(C)N1`, the survivor count runs as follows: under setting [11], 6 of 6; under setting [12], 4 of 6.
Consider `CN=NN(C)C(C)=O`, for which the survivor count is listed as 6 of 6 (dose: 50.0 mg/kg/injection, schedule: Q01DX005 (ip), vehicle: saline); 0 of 6 under setting [5]; 0 of 6 under setting [6].
Take `Nc1nc(N)c2c(ccc3c2ccn3Cc2cccc([N+](=O)[O-])c2)n1`: the T/C is, setting by setting: (dose: 3.12 mg/kg/injection, schedule: Q01DX005 (ip), vehicle: saline with Tween-80) 134 % of control; (dose: 6.25 mg/kg/injection, schedule: Q01DX005 (ip), vehicle: saline with Tween-80) 128, 148, 149 % of control. For the same compound, the survivor count under setting [9] is 2 of 5 and 6 of 6.
For the compound `C=CC1=NC(C)(C)CC(C)O1` (stereo unspecified), the survivor count (dose: 25.0 mg/kg/injection, schedule: Q01DX009 (ip), vehicle: water) is recorded as 1 of 6.
For the compound `[Cl][Sn]1([Cl])[N]2CCCCC2C2CCCC[N]21` (stereo unspecified), under setting [3], the survivor count is given as 5 of 6.
Take `O=[N+]([O-])c1ccc(N2c3ccccc3SC2c2ccco2)c([N+](=O)[O-])c1` (stereo unspecified): the survivor count under setting [10] is listed as 5 of 5, the survivor count under setting [7] is given as 5 of 5 and the survivor count under setting [8] is 5 of 5.
As to `CSc1nccc(=O)n1-c1ccccc1C`, the survivor count (dose: 400.0 mg/kg/injection, schedule: Q04DX002 (ip), vehicle: Klucel (hydroxypropylcellulose) (HPC)) was 0 of 6.
In the case of `NCc1cc(O)c(O)c(O)c1`, the T/C is 133 % of control under setting [4] and 129 % of control (dose: 400.0 mg/kg/injection, schedule: Q01DX009 (ip), vehicle: saline). Besides, where the note is “dose: 600.0 mg/kg/injection, schedule: Q01DX009 (ip), vehicle: saline”, the survivor count is on record as 6 of 6.
With `CCC(=O)c1cc(-c2cc(C(=O)CC)[nH]n2)n[nH]1`, under setting [12], the survivor count was 3 of 6.
As for `CC(=O)NCCn1nc(-c2ccc(Cl)cc2)c(-c2ccc(Cl)cc2)c(C(C)=O)c1=O`, the survivor count under setting [9] was 5 of 6, the survivor count under setting [10] is 0 of 6, the survivor count under setting [7] is on record as 0 of 6 and the survivor count under setting [8] is given as 0 of 6.
Turning to `CC1=CC(=O)C(=O)C2=C1OC1(C2)C(C)CCC2C3(C)CCC(O)C(C)(C)C3CCC21C` (stereo unspecified), the T/C (dose: 100.0 mg/kg/injection, schedule: Q01DX005 (ip), vehicle: distilled water + Tween-80) is 135 % of control. In addition, the survivor count reads like this: (dose: 200.0 mg/kg/injection, schedule: Q01DX005 (ip), vehicle: distilled water + Tween-80) 0 of 5; under setting [8], 2 of 6.
As for `CCN(CC)CCOc1cccc(NC(=O)CN(CC)CC)c1`, the survivor count was 3 of 6 under setting [11] and 0 of 6 under setting [12].
For `CN(C)C(C)(C#N)C(N)=O` (stereo unspecified), the survivor count was 0 of 6 (dose: 12.5 mg/kg/injection, schedule: Q04DX003 (ip), vehicle: saline); 0 of 6 (dose: 25.0 mg/kg/injection, schedule: Q04DX003 (ip), vehicle: saline); 0 of 6 (dose: 100.0 mg/kg/injection, schedule: Q04DX003 (ip), vehicle: saline with Tween-80); 0 of 6 under setting [2]; 0 of 6 under setting [3].
In the case of `N=C(N)c1ccc(/C=C/c2cc3cc(C(=N)N)ccc3o2)cc1`, the survivor count (dose: 100.0 mg/kg/injection, schedule: Q04DX003 (ip), vehicle: suspension in saline) is recorded as 4 of 6; the survivor count (dose: 200.0 mg/kg/injection, schedule: Q04DX003 (ip), vehicle: suspension in saline) was 4 of 6; the survivor count (dose: 400.0 mg/kg/injection, schedule: Q04DX003 (ip), vehicle: suspension in saline) is 0 of 6.
